In patent US20260193365A1 (GRANITE BIO, published 2026):
Results are given in words; binding and its absence hold for the method and conditions named. Binding can be weak; no strength is given.

B1: DOC2-RHAXRKA FR2 (antibody, human IgG1, kappa, V domains shown)
VH: EVQLVESGGGVVQPGRSLRLSCAASGFTLSNYAMSWVRQAPGKGLEWVAEVSSSGIYIYYSDTVTGRFTISRDNSKNTLYLQMNSLRAEDTAVYYCARDRYAYAMDYWGQGTLVTVSS
VL: DIVMTQSPDSLAVSLGERATINCKSSQSLLNSYNQKNSLAWYQQKPGQSPKLLVYFASTRESGVPDRFSGSGSGTDFTLTISSLQAEDVAVYYCQQHYSNPRTFGGGTKLEIKR
B2: DOC2 (antibody, V domains shown)
VH: EVQLVESGGGLVKPGGSLKLSCVASGFTLSNYAMSWVRQSPEKRLEWVAEVSSSGIYIYYSDTVTGRFSISRDNAKNTLYLEMSSLRSEDTAIYYCARDRYAYAMDYWGHGTSVIVSS
VL: DIVMTQSPSSLAISVGQRVTLSCKSSQSLLNSYNQKNSLAWYQQKPGQSPKLLVYFASTRESGVPDRFIGSGSGTYFTLTITSVQAGDLADYFCQQHYSNPRTFGGGTRLEIK
B3: DOC2 chim. (antibody, human IgG1, kappa, V domains shown)
VH: B2 VH
VL: DIVMTQSPSSLAISVGQRVTLSCKSSQSLLNSYNQKNSLAWYQQKPGQSPKLLVYFASTRESGVPDRFIGSGSGTYFTLTITSVQAGDLADYFCQQHYSNPRTFGGGTRLEIKR

Tests used:
[1] = biological target: Marmoset monkey (Callithrix jacchus) CCR2 (Marmoset monkey (Callithrix jacchus)); experiment: cell binding, primary marmoset monocytes
[2] = biological target: Marmoset monkey (Callithrix jacchus) CCR2 (Marmoset monkey (Callithrix jacchus)); experiment: cell binding, primary marmoset PBMC

Binder	binding [1]	binding [2]
B1	binds	
B2	binds	
B3		binds
